Data set [1] addresses AMPKalpha2(h) (Homo sapiens, UniProt P54646). The experiment in a line: biochemical.
Data set [2] addresses AMPKalpha1(h) (Homo sapiens, UniProt Q13131). Kind of data set: biochemical.
The target of data set [3] is PKA(h) (Homo sapiens, UniProt P17612). Kind of data set: biochemical.
Data set [4] has as its system panel of 10 individual USPs. Kind of data set: SGC USP selectivity screen, whole panel. The class given is biochemical.
Data set [5] can be described thus: in vitro. Particulars: human, Caco-2, pH 7.2. The protocol: Caco-2 cells [purchased from the German Collection of Microorganisms and Cell Cultures (DSMZ)] were seeded at a density of 4.5 × 10^4 cells/well on 24-well insert plates [0.4 μm pore size, 0.3 cm^2 (Costar)] and grown for 13–15 days in DMEM medium supplemented with 10% fetal calf serum (FCS), 1% GlutaMAX (100×, Gibco), 100 U/mL penicillin, 100 μg/mL streptomycin (Gibco), and 1% nonessential amino acids (100×, Thermo Fischer Scientific). […] The medium was changed every 2–3 days.
The bidirectional transport assay for the evaluation of Caco-2 permeability was undertaken in 24-well insert plates using a robotic system (Tecan). Before the assay was run, the culture medium was replaced by a transport medium (FCS-free HEPES carbonate transport buffer pH 7.2). For the assessment of monolayer integrity, the transepithelial electrical resistance (TEER) was measured. Only monolayers with a TEER of at least 400 Ω·cm^2 were used. Test compounds were pre-dissolved in DMSO and added either to the apical or basolateral compartment at a final concentration of 2 μM. The evaluation was performed in triplicate. […] The efflux ratio (ER) basolateral (B) to apical (A) was calculated by dividing Papp B–A by Papp A–B.

The subject of data set [6] is 44 individual DUB targets.

The term inhibition denotes the change of the read-out against control, counted positive when it falls. For orientation: Papp B→A means how fast a substance crosses the layer from the basolateral side.

On to `CC(C)C[C@H](NC(=O)C1(C(F)(F)F)CCCCC1)C(=O)Nc1nnc(Cc2ccc(C#N)cc2)s1` [Compound 22, CC(C)C[C@H](NC(=O)C1(CCCCC1)C(F)(F)F)C(=O)Nc2nnc(Cc3ccc(cc3)C#N)s2], for which the inhibition at 10 µM was -8.56% in data set [1], 7.32% in data set [2] and 4.33% in data set [3].

Take `CC(C)C[C@@H](NC(=O)C1(C(F)(F)F)CCCCC1)C(=O)Nc1nnc(Cc2ccc(C#N)cc2)s1` [Compound 21, N-[(1R)-1-[[5-[(4-Cyanophenyl)methyl]-1,3,4-thiadiazol-2-yl]carbamoyl]-3-methyl-butyl]-1-(trifluoromethyl)cyclohexanecarboxamide]: the values for the inhibition at 10 µM in data set [1], in data set [2] and in data set [3] were 8.04%, 11.2% and 2.87%, respectively. For the same compound, in data set [4], the “remaining USP activity” value is > 50%. Moreover, the apparent permeability from basolateral to apical (Papp B→A) at 2 h, 2 µM in data set [5] was found to be 2.7 ×10⁻⁶ cm/s. For the same compound, the “remaining DUB activity” value in data set [6] is given as > 85%.

The record behind these values is article PMC10009755, “Discovery and Characterization of BAY-805, a Potent and Selective Inhibitor of Ubiquitin-Specific Protease USP21” (Journal of Medicinal Chemistry, 2023).
